This passage reports binding results from publication PMC7978383.

Protein sequences, listed by entry. Tags and fused reporters are not part of them.
UniProt P46938: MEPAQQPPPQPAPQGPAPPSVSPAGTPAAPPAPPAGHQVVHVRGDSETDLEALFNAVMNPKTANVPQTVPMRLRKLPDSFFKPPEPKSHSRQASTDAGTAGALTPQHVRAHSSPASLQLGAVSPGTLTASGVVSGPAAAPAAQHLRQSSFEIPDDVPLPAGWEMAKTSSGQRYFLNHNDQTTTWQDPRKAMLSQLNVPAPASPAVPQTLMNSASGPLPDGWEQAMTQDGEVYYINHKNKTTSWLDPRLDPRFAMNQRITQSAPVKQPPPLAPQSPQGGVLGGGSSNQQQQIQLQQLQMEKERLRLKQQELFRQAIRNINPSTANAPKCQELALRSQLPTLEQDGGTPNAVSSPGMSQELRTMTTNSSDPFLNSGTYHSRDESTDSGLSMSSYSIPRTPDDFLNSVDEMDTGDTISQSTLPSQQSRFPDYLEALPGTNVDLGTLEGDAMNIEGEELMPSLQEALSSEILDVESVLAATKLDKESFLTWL
UniProt P46937: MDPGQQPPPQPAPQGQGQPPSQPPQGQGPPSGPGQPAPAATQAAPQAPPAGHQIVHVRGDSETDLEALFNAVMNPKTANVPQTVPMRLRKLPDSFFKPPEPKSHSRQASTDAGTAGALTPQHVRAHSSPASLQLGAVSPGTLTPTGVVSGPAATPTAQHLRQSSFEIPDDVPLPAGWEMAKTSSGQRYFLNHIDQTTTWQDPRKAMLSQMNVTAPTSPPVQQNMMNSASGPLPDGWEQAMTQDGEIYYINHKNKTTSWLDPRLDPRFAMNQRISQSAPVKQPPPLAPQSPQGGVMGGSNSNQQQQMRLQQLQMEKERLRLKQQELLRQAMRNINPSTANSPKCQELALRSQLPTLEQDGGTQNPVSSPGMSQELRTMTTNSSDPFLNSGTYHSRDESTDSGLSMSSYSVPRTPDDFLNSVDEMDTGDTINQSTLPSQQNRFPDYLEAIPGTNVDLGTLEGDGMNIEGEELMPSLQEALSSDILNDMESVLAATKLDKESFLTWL
UniProt Q9GZV5: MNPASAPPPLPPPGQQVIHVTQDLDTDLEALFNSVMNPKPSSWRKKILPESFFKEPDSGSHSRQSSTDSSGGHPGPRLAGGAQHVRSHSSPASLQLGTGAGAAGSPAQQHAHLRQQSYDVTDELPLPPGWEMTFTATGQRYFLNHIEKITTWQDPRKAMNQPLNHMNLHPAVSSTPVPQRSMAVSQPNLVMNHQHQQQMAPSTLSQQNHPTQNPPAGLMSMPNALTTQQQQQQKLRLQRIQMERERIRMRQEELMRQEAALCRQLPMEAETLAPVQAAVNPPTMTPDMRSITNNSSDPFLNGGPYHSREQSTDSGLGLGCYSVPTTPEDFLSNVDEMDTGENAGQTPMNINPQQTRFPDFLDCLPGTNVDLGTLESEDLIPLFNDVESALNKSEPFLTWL

Test [1] has as its target T1, endogenous PPM1A in regenerating mouse liver (mouse (endogenous in liver)) (UniProt P49443).
T1 sequence: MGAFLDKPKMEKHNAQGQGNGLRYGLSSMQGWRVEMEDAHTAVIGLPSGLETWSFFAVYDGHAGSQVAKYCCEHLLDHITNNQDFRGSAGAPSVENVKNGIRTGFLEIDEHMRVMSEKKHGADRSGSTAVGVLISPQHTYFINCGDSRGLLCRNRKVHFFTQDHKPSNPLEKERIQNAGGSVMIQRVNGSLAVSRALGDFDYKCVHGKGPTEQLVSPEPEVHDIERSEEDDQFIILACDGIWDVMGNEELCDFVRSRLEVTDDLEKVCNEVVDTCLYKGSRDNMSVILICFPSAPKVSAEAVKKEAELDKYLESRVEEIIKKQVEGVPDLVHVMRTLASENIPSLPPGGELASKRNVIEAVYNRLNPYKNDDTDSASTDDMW
Description: co-IP; endogenous proteins in mouse liver lysates 2 days post hepatectomy; MLB buffer; anti-PPM1A antibody for endogenous proteins; immunoblotting. For orientation: In western blotting, separated proteins are transferred to a membrane and probed.

The target of test [2] is T2, stably expressed PPM1A (human) (UniProt P35813).
T2 sequence: T1 sequence with T52S, R86K, S293N, A299P, S314C, V324G, A376T
Description: co-IP; endogenous YAP and stably expressed PPM1A in cell lysate; MLB buffer; immunoblotting.

In test [3] the target is T3, protein phosphatase magnesium-dependent 1A (PPM1A), tagged, coexpressed (human) (UniProt P35813).
T3 sequence: T1 sequence with T52S, R86K, S293N, A299P, S314C, V324G, A376T
Kind of test: co-IP; tagged proteins coexpressed in HEK293 cells; lysis and washes in MLB (20 mM Tris-Cl, 200 mM NaCl, 1% NP-40, pH 7.5); immunoprecipitation with anti-Flag, anti-Myc or anti-HA; immunoblotting.

Substitutions are numbered along the chain they refer to. These are yes or no findings as the source states them, for the method shown. In cells and extracts the contact can be indirect. Some results given as binding are weak or reduced against the parent protein; the word gives no strength. For some of these results: Tags and fused reporters may be left off the sequences shown.

On to “endogenous YAP in regenerating mouse liver (from UniProt P46938 1-488)”, for which, in test [1], the binding entry was “binds”. Consider “endogenous YAP in HEK293 cells (from UniProt P46937 1-504)”, for which the binding entry in test [2] is listed as “binds”.

Regarding “Yes-associated protein (YAP), tagged, coexpressed (from UniProt P46937 1-504)”, the binding result in test [3] was “binds”. For “transcriptional coactivator with PDZ-binding motif (TAZ), tagged, coexpressed (from UniProt Q9GZV5 1-400)”, the binding result in test [3] is “binds”.
